Assay results reported in the supplement of paper PMC11006884.
The entries are a selection whose mix differs from that of the whole data set.

By UniProt entry, the sequences of proteins in these tests, tags left out. Where a name states a change or a piece, a line headed by the entry shows the natural chain unless it says otherwise.
UniProt P35611: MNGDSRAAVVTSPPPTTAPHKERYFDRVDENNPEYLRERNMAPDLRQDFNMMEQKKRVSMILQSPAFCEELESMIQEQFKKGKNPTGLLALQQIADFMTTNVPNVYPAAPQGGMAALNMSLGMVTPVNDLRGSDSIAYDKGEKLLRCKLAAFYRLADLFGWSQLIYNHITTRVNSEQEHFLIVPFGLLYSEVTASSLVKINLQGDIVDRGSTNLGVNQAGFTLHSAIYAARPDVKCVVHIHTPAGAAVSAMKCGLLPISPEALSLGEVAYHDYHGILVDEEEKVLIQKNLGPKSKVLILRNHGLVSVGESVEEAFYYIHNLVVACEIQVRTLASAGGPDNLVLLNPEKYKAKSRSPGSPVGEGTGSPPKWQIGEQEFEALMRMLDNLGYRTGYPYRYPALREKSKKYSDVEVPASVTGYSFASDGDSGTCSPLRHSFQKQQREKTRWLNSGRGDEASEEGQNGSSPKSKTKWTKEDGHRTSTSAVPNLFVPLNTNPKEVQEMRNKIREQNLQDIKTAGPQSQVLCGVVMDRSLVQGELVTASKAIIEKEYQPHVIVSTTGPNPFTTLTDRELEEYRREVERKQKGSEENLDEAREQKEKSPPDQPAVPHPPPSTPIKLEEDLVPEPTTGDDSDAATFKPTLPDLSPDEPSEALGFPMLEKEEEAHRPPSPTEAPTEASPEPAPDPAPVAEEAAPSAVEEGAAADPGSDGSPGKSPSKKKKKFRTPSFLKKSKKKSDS
UniProt P35579, whole entry, looked up: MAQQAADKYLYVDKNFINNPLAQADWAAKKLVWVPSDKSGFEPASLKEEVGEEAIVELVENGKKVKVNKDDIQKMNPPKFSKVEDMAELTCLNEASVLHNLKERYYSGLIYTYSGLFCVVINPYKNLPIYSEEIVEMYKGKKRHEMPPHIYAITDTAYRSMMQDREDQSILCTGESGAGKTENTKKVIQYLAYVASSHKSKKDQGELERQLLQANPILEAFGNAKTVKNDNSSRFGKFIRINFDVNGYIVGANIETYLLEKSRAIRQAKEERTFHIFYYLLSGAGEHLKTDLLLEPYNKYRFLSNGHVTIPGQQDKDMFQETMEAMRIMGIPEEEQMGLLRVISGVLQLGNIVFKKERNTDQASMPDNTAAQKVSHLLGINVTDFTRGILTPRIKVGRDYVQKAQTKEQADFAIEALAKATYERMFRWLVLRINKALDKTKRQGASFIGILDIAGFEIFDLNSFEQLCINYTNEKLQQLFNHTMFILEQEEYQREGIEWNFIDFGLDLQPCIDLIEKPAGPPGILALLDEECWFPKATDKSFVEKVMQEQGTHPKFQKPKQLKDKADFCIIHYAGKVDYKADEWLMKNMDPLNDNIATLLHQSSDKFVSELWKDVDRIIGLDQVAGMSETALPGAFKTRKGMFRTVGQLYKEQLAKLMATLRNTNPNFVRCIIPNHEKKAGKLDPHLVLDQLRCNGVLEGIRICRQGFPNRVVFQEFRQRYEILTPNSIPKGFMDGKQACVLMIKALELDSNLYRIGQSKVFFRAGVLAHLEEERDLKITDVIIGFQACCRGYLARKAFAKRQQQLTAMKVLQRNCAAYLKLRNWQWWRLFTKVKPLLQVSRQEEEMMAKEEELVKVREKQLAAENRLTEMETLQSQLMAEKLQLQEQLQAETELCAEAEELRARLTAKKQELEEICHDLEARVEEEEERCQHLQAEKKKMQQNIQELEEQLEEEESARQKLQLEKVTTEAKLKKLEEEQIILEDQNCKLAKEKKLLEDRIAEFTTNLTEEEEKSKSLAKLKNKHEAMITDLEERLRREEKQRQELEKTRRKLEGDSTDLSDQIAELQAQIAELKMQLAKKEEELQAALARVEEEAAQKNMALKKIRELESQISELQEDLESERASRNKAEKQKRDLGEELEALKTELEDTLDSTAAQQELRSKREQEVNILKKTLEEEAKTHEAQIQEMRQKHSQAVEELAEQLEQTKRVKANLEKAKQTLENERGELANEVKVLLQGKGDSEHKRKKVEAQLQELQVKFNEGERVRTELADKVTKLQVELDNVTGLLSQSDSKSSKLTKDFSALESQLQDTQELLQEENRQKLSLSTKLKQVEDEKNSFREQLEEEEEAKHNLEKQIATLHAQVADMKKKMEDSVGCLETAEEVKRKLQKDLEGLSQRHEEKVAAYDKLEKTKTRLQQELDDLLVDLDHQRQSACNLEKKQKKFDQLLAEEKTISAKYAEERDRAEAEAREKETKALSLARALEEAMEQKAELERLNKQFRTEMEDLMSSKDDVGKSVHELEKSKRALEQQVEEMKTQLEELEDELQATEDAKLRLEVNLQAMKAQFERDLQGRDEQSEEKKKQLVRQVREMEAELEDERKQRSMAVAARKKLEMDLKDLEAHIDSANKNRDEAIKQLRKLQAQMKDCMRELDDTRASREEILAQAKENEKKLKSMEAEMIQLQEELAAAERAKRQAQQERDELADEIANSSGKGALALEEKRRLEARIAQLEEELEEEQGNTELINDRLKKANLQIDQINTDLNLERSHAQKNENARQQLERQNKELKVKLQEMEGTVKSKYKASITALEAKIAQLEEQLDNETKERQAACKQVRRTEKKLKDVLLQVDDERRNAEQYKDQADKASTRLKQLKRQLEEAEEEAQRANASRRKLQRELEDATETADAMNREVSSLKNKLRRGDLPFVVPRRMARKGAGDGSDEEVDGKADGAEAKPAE
UniProt P30520: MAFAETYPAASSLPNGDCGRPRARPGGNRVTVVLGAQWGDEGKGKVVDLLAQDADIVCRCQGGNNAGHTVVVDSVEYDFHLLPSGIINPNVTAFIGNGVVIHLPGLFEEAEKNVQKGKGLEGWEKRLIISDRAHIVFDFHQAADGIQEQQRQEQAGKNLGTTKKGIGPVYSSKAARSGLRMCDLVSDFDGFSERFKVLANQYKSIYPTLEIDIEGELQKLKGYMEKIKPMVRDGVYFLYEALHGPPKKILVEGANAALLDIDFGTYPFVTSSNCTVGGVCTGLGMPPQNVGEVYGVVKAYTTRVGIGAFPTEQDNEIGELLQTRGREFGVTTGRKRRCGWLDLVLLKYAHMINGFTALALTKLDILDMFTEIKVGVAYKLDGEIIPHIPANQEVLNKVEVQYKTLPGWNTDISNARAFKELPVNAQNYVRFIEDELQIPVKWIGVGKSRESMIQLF
UniProt P42765: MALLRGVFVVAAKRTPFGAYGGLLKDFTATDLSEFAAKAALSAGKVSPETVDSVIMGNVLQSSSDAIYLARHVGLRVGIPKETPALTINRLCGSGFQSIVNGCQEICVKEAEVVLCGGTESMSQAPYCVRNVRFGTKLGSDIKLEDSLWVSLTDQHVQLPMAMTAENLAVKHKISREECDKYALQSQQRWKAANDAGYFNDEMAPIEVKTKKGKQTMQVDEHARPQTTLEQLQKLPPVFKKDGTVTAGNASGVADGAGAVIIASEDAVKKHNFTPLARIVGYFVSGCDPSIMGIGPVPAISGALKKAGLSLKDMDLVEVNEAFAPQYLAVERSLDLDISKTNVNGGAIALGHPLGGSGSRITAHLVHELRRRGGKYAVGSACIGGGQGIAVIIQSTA
UniProt P42695: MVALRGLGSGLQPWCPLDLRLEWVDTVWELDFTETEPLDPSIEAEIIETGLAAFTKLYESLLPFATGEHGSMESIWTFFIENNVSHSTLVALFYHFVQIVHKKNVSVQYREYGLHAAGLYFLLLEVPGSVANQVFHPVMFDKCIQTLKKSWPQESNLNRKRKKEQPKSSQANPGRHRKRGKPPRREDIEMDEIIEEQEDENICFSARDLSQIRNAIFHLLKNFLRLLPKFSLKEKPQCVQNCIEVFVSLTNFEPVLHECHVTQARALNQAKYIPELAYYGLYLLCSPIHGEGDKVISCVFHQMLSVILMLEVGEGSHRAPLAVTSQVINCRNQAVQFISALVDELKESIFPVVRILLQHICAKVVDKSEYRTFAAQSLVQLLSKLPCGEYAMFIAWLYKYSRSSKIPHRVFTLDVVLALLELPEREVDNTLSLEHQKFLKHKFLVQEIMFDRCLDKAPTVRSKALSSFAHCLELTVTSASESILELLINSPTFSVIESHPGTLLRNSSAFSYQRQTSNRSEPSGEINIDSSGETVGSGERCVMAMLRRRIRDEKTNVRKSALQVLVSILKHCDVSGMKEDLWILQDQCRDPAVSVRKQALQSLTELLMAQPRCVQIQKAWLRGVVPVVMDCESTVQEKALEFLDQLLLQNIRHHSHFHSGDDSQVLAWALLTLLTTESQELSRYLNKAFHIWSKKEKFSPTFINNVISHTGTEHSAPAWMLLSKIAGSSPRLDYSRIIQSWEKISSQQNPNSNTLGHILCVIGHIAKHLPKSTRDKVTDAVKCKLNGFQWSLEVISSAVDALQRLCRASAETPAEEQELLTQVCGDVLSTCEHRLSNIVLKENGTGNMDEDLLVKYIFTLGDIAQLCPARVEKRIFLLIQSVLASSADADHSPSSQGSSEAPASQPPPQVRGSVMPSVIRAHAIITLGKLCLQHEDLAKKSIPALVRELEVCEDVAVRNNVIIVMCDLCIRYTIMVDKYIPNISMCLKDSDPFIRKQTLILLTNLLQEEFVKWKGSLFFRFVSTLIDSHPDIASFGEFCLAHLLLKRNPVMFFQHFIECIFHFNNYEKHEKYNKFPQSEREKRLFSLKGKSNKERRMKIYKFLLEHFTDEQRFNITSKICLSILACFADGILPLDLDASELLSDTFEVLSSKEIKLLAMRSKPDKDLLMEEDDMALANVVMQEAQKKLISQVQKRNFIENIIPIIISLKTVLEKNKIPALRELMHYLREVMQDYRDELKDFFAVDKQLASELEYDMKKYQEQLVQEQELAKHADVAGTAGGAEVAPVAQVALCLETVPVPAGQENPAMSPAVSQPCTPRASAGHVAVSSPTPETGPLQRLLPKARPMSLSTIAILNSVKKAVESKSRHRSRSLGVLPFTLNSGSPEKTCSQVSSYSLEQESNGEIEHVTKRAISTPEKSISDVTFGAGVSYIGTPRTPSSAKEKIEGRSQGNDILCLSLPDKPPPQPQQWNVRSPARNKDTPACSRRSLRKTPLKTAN
UniProt P31946: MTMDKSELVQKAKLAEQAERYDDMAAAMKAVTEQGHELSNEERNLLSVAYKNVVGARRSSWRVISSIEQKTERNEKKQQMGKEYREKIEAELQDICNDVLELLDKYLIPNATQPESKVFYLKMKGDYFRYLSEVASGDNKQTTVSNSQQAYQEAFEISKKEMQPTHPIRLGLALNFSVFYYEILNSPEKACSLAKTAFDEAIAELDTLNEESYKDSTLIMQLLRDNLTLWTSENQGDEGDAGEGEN
UniProt P31948, whole entry, looked up: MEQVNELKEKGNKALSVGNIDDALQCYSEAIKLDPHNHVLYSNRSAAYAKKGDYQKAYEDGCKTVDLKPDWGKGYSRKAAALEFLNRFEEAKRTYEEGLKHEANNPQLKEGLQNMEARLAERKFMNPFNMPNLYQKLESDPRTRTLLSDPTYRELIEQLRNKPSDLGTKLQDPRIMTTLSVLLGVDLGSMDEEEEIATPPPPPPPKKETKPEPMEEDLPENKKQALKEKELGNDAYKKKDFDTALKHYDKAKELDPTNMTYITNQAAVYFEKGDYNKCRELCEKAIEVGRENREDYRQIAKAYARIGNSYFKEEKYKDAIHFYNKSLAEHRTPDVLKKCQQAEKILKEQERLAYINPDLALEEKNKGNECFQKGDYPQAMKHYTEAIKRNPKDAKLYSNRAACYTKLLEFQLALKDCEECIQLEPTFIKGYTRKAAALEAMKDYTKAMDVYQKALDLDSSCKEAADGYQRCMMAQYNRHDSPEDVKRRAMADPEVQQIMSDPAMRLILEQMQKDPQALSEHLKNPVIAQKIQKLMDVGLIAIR
UniProt P32321: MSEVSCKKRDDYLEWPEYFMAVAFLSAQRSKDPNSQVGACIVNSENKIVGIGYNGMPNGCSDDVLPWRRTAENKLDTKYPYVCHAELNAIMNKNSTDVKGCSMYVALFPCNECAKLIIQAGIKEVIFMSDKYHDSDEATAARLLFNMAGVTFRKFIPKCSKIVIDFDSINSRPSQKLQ
UniProt P31943: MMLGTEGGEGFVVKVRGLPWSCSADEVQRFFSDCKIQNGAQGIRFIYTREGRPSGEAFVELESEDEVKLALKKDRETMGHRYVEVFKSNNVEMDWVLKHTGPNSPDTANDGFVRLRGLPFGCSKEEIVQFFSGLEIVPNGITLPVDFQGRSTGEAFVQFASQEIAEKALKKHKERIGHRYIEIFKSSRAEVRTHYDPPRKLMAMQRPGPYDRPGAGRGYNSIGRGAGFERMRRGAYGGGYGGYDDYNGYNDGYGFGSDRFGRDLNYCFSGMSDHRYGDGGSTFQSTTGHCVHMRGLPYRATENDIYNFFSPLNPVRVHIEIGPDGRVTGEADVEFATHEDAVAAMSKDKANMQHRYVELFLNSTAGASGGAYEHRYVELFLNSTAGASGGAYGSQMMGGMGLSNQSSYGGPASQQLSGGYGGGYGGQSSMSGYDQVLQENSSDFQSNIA

Compound: COC(=O)C#Cc1ccccc1 [methyl 3-phenylpropiolate]
Assay: log2 ratio of iodoacetamide-alkyne labeling of the cysteine site, DMSO over compound (competition); higher = stronger covalent engagement of the cysteine by the compound, active = 1 or more
Details: 500 µM; treatment time 1 h; system: HEK293T cell lysate
In short: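 HEK293T lysate (2 mg/mL) was incubated with electrophile (500 µM) or vehicle for 1 h at ambient temperature and then with iodoacetamide alkyne for 1 h. Labelled proteins were clicked to sCIP-TMT reagents, pooled, digested, enriched on streptavidin and measured by Orbitrap Eclipse LC-MS/MS with FAIMS, with FragPipe quantification. The per-cysteine log2 competition ratio is mean control-channel reporter intensity over mean compound-channel reporter intensity. Across three replicates with duplicate channels, cysteines quantified in only one replicate were excluded.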

Target | log2 ratio of iodoacetamide-alkyne labeling
ADD1 C430 (UniProt P35611) | inactive: 0.555
ATIC C101 (UniProt P31939) | inactive: -0.104
UniProt P41743_C595 | inactive: 0.16
MYH9 C91 (UniProt P35579) | inactive: -0.0505
SHMT2 C80 (UniProt P34897) | inactive: -0.139
MYH9 C917 (UniProt P35579) | inactive: 0.103
MAT2A C214 (UniProt P31153) | inactive: 0.273
AKT2 C311 (UniProt P31751) | inactive: 0.471
FEN1 C141 (UniProt P39748) | inactive: 0.541
UniProt P30520_C18 | inactive: 0.518
TTK C465 (UniProt P33981) | inactive: 0.537
MYH9 C988 (UniProt P35579) | inactive: -0.0255
UniProt P42285_C110 | inactive: -0.148
UniProt P31260_C200 | inactive: 0.823
UniProt P36954_C52 | inactive: 0.245
ACAA2 C128 (UniProt P42765) | active: 1.22
CPOX C239 (UniProt P36551) | inactive: -0.177
NCAPD3 C1456 (UniProt P42695) | inactive: 0.397
NUP214 C728 (UniProt P35658) | inactive: 0.497

Target | log2 ratio of iodoacetamide-alkyne labeling
YWHAB C96 (UniProt P31946) | inactive: -0.0582
ADD1 C525 (UniProt P35611) | inactive: 0.437
RFC2 C7 (UniProt P35250) | inactive: 0.344
RPL4 C125 (UniProt P36578) | inactive: 0.361
HADHA C747 (UniProt P40939) | inactive: 0.195
SOAT1 C92 (UniProt P35610) | inactive: 0.403
STIP1 C339 (UniProt P31948) | inactive: 0.0728
UniProt P36507_C384 | inactive: 0.261
PSMC2 C270 (UniProt P35998) | inactive: 0.0616
MPI C289 (UniProt P34949) | inactive: -0.0268
TAGLN2 C38 (UniProt P37802) | inactive: -0.0194
POLR2B C224 (UniProt P30876) | inactive: 0.127
DCTD C83 (UniProt P32321) | inactive: 0.144
FEN1 C311 (UniProt P39748) | inactive: 0.155
CUX1 C1040 (UniProt P39880) | inactive: 0.877
UniProt P30520_C182 | inactive: 0.102
PPP2R1A C377 (UniProt P30153) | inactive: 0.919
HNRNPH1 C34 (UniProt P31943) | inactive: -0.171

Reprinted at random: 2 records from the list.
Target | log2 ratio of iodoacetamide-alkyne labeling
STIP1 C339 (UniProt P31948) | inactive: 0.0728
UniProt P30520_C182 | inactive: 0.102
